Test results from article PMC3689916.
No constants are given. Whether binding was seen depends on the method and setting. A result given as binding can be weak or reduced; the word gives no strength. Sequences can lack the tags named with a protein.

Amino acid sequences for entries named in this document (tags omitted). A change or cut given only in a name is not applied to a line headed by its entry.
UniProt P49862: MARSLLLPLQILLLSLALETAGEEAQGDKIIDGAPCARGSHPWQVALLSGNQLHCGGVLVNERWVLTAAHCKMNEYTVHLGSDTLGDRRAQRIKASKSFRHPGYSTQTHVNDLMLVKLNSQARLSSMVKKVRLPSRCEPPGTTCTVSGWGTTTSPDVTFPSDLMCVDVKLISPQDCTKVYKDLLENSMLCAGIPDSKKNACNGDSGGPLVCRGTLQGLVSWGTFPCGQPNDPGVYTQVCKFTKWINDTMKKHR

Biological target: recombinant human kallikrein 7 (hK7) (human) (UniProt P49862)
Assay: SDS-stable serpin-protease complex formation (SDS-PAGE with silver staining, Western blot, MALDI-TOF MS); hK7 and vaspin or vaspin variants incubated in solution at RT (molar ratio 1:1.4 for silver-stained gels, 1:1 for Western blot, vaspin:hK7 5:1 for 24 h for MS); samples over 5 min to 24 h; complexes stable under reducing conditions; both purified

B1: recombinant human vaspin (visceral adipose tissue-derived serpin; serpinA12), 10×His fusion protein (protein, UniProt Q8IW75 22-414)
chain: KPSFSPRNYKALSEVQGWKQRMAAKELARQNMDLGFKLLKKLAFYNPGRNIFLSPLSISTAFSMLCLGAQDSTLDEIKQGFNFRKMPEKDLHEGFHYIIHELTQKTQDLKLSIGNTLFIDQRLQPQRKFLEDAKNFYSAETILTNFQNLEMAQKQINDFISQKTHGKINNLIENIDPGTVMLLANYIFFRARWKHEFDPNVTKEEDFFLEKNSSVKVPMMFRSGIYQVGYDDKLSCTILEIPYQKNITAIFILPDEGKLKHLEKGLQVDTFSRWKTLLSRRVVDVSVPRLHMTGTFDLKKTLSYIGVSKIFEEHGDLTKIAPHRSLKVGEAVHKAELKMDERGTEGAAGTGAQTLPMETPLVVKIDKPYLLLIYSEKIPSVLFLGKIVNPIGK
- binding: binds
